Assay results taken from ChEMBL document CHEMBL4316593 (Eur J Med Chem, 2019).
Further values from the same series stand in other lists.

What was measured:
Type in all cases: cell-based
Conditions in all cases: U-87MG ATCC
[1] = Inhibition of RTK/PI3K/AKT/mTOR signaling in human U87 cells assessed as down regulation of ACAA1 gene expression at cytotoxic IC50 measured after 48 hrs relative to control
[2] = Inhibition of RTK/PI3K/AKT/mTOR signaling in human U87 cells assessed as down regulation of RFWD3 gene expression at cytotoxic IC50 measured after 48 hrs relative to control
[3] = Inhibition of RTK/PI3K/AKT/mTOR signaling in human U87 cells assessed as down regulation of EPG5 gene expression at cytotoxic IC50 measured after 48 hrs relative to control
[4] = Inhibition of RTK/PI3K/AKT/mTOR signaling in human U87 cells assessed as down regulation of ZNF266 gene expression at cytotoxic IC50 measured after 48 hrs relative to control
[5] = Inhibition of RTK/PI3K/AKT/mTOR signaling in human U87 cells assessed as down regulation of ASNS gene expression at cytotoxic IC50 measured after 48 hrs relative to control
[6] = Inhibition of RTK/PI3K/AKT/mTOR signaling in human U87 cells assessed as down regulation of ZNF721 gene expression at cytotoxic IC50 measured after 48 hrs relative to control
[7] = Inhibition of RTK/PI3K/AKT/mTOR signaling in human U87 cells assessed as down regulation of ZNF503 gene expression at cytotoxic IC50 measured after 48 hrs relative to control
[8] = Inhibition of RTK/PI3K/AKT/mTOR signaling in human U87 cells assessed as down regulation of TFCP2L1 gene expression at cytotoxic IC50 measured after 48 hrs relative to control
[9] = Inhibition of RTK/PI3K/AKT/mTOR signaling in human U87 cells assessed as down regulation of LPIN1 gene expression at cytotoxic IC50 measured after 48 hrs relative to control
[10] = Inhibition of RTK/PI3K/AKT/mTOR signaling in human U87 cells assessed as down regulation of ALDH4A1 gene expression at cytotoxic IC50 measured after 48 hrs relative to control
[11] = Inhibition of RTK/PI3K/AKT/mTOR signaling in human U87 cells assessed as down regulation of PIGK gene expression at cytotoxic IC50 measured after 48 hrs relative to control
[12] = Inhibition of RTK/PI3K/AKT/mTOR signaling in human U87 cells assessed as down regulation of SP4 gene expression at cytotoxic IC50 measured after 48 hrs relative to control
[13] = Inhibition of RTK/PI3K/AKT/mTOR signaling in human U87 cells assessed as down regulation of SLC27A4 gene expression at cytotoxic IC50 measured after 48 hrs relative to control
[14] = Inhibition of RTK/PI3K/AKT/mTOR signaling in human U87 cells assessed as down regulation of ZBTB11 gene expression at cytotoxic IC50 measured after 48 hrs relative to control
[15] = Inhibition of RTK/PI3K/AKT/mTOR signaling in human U87 cells assessed as down regulation of DUSP14 gene expression at cytotoxic IC50 measured after 48 hrs relative to control
[16] = Inhibition of RTK/PI3K/AKT/mTOR signaling in human U87 cells assessed as down regulation of VPS4B gene expression at cytotoxic IC50 measured after 48 hrs relative to control
[17] = Inhibition of RTK/PI3K/AKT/mTOR signaling in human U87 cells assessed as down regulation of MAD2L2 gene expression at cytotoxic IC50 measured after 48 hrs relative to control
[18] = Inhibition of RTK/PI3K/AKT/mTOR signaling in human U87 cells assessed as down regulation of VCPIP1 gene expression at cytotoxic IC50 measured after 48 hrs relative to control
[19] = Inhibition of RTK/PI3K/AKT/mTOR signaling in human U87 cells assessed as down regulation of ERAL1 gene expression at cytotoxic IC50 measured after 48 hrs relative to control
[20] = Inhibition of RTK/PI3K/AKT/mTOR signaling in human U87 cells assessed as down regulation of GAK gene expression at cytotoxic IC50 measured after 48 hrs relative to control
[21] = Inhibition of RTK/PI3K/AKT/mTOR signaling in human U87 cells assessed as down regulation of BRPF3 gene expression at cytotoxic IC50 measured after 48 hrs relative to control
[22] = Inhibition of RTK/PI3K/AKT/mTOR signaling in human U87 cells assessed as down regulation of SOD1 gene expression at cytotoxic IC50 measured after 48 hrs relative to control
[23] = Inhibition of RTK/PI3K/AKT/mTOR signaling in human U87 cells assessed as down regulation of CSE1L gene expression at cytotoxic IC50 measured after 48 hrs relative to control
[24] = Inhibition of RTK/PI3K/AKT/mTOR signaling in human U87 cells assessed as up regulation of IRS1 gene expression at cytotoxic IC50 measured after 48 hrs relative to control
[25] = Inhibition of RTK/PI3K/AKT/mTOR signaling in human U87 cells assessed as up regulation of RAB29 gene expression at cytotoxic IC50 measured after 48 hrs relative to control
[26] = Inhibition of RTK/PI3K/AKT/mTOR signaling in human U87 cells assessed as up regulation of unc-13 homolog A gene expression at cytotoxic IC50 measured after 48 hrs relative to control
[27] = Inhibition of RTK/PI3K/AKT/mTOR signaling in human U87 cells assessed as up regulation of coagulation factor III, tissue factor gene expression at cytotoxic IC50 measured after 48 hrs relative to control
[28] = Inhibition of RTK/PI3K/AKT/mTOR signaling in human U87 cells assessed as up regulation of engulfment and cell motility 3 gene expression at cytotoxic IC50 measured after 48 hrs relative to control
[29] = Inhibition of RTK/PI3K/AKT/mTOR signaling in human U87 cells assessed as up regulation of golgi glycoprotein 1 gene expression at cytotoxic IC50 measured after 48 hrs relative to control
[30] = Inhibition of RTK/PI3K/AKT/mTOR signaling in human U87 cells assessed as up regulation of carbohydrate sulfotransferase 12 gene expression at cytotoxic IC50 measured after 48 hrs relative to control
[31] = Inhibition of RTK/PI3K/AKT/mTOR signaling in human U87 cells assessed as up regulation of peptidylprolyl isomerase like 3 gene expression at cytotoxic IC50 measured after 48 hrs relative to control
[32] = Inhibition of RTK/PI3K/AKT/mTOR signaling in human U87 cells assessed as up regulation of prostaglandin E synthase 2 gene expression at cytotoxic IC50 measured after 48 hrs relative to control
[33] = Inhibition of RTK/PI3K/AKT/mTOR signaling in human U87 cells assessed as up regulation of CYFIP2 gene expression at cytotoxic IC50 measured after 48 hrs relative to control

With CC(=O)C(=NNc1ccccc1C#N)C(C)=O the log2FC [1] was -1.69, the log2FC [2] was -1.54 and the log2FC [3] was -1.53. The log2FC [4] was -1.43, the log2FC [5] was -1.39 and the log2FC [6] was -1.37. For the same compound, the log2FC [7] was -1.36, the log2FC [8] was -1.27 and the log2FC [9] was -1.09. It also gave a log2FC [10] of -1.05, a log2FC [11] of -0.958 and a log2FC [12] of -0.895. For the same compound, the log2FC [13] was -0.832, the log2FC [14] was -0.755 and the log2FC [15] was -0.678. It also gave a log2FC [16] of -0.672, a log2FC [17] of -0.632 and a log2FC [18] of -0.619. The log2FC [19] was -0.603, the log2FC [20] was -0.58 and the log2FC [21] was -0.55. It also gave a log2FC [22] of -0.451, a log2FC [23] of -0.398 and a log2FC [24] of 1.82. The log2FC [25] was 1.82, the log2FC [26] was 1.51 and the log2FC [27] was 1.24. The log2FC [28] was 1.18, the log2FC [29] was 1.07 and the log2FC [30] was 0.921. It also gave a log2FC [31] of 0.837, a log2FC [32] of 0.699 and a log2FC [33] of 0.588.
